Values quoted from earlier work, collected in patent publication US7875284B2, “Methods of manufacturing and modifying taxane coatings for implantable medical devices” (Cook Incorporated, priority 2006, dated 2011).

Conditions: 37° C. water, after about 5 hours; cited from earlier work

In the case of CC(=O)O[C@H]1C(=O)[C@@]2(C)[C@H]([C@H](OC(=O)c3ccccc3)[C@]3(O)C[C@H](OC(=O)[C@H](O)[C@@H](NC(=O)c4ccccc4)c4ccccc4)C(C)=C1C3(C)C)[C@]1(OC(C)=O)CO[C@@H]1C[C@@H]2O [dihydrate paclitaxel, paclitaxel], the solubility in water is listed as “less than 1.0 μg/mL”.

In the case of CC(=O)O[C@H]1C(=O)[C@@]2(C)[C@H]([C@H](OC(=O)c3ccccc3)[C@]3(O)C[C@H](OC(=O)[C@H](O)[C@@H](NC(=O)c4ccccc4)c4ccccc4)C(C)=C1C3(C)C)[C@]1(OC(C)=O)CO[C@@H]1C[C@@H]2O [Anhydrous paclitaxel, paclitaxel], the solubility in water is given as “about 3.5 μg/mL”.
